Test results from patent US10017451B2, “Lactic acid extraction” (PURAC BIOCHEM BV, priority 2011, dated 2018).

Test: Comparison of different solvents in lactic acid extraction/back extraction (Example 10)
Format: physicochemical
Settings: listed as substance is the extraction solvent; feed 29 wt % lactic acid, 15 wt. % magnesium chloride; forward and back extraction at 20° C.
In the case of CCCCCC(C)=O [2-heptanone], the “[lactic acid] product” value is reported as 34 wt. %.
With CCCCC(C)=O [2-hexanone] the “[lactic acid] product” value was 35 wt. %.
With CCCCCCC(C)=O [2-octanone] the “[lactic acid] product” value was 30 wt. %.
For CCCC(C)=O [2-pentanone], the “[lactic acid] product” value was 30 wt. %.
In the case of CC(=O)CC(C)C [MIBK, methyl-isobutyl-ketone], the “[lactic acid] product” value is reported as 35 wt. %.
For CC(=O)c1ccccc1 [acetophenone], the “[lactic acid] product” value was 34 wt. %.
With O=C1CCCCC1 [cyclo-hexanone] the “[lactic acid] product” value was 32 wt. %.
In the case of CCOCC [diethylether], the “[lactic acid] product” value is reported as 38 wt. %.
In the case of CC(C)OC(C)C [diisopropyl ether], the “[lactic acid] product” value is reported as 21 wt. %.
With CCCOCC [ethyl propyl ether] the “[lactic acid] product” value was 25 wt. %.
In the case of CC(C)CCO [isoamyl alcohol], the “[lactic acid] product” value is reported as 23 wt. %.
With COC(C)(C)C [methyl-tertiary-butyl-ether] the “[lactic acid] product” value was 37 wt. %.
In the case of CCN(CC)C(=O)c1cccc(C)c1 [n,n-diethyl-m-toluamide], the “[lactic acid] product” value is reported as 27 wt. %.
For Cc1ccccc1 [toluene], the “[lactic acid] product” value was 1 wt. %.
With CCCCCCCCN(CCCCCCCC)CCCCCCCC [trioctylamine (TOA), trioctylamine] the “[lactic acid] product” value was 13 wt. %.

Test: Comparison of different salts in lactic acid extraction/back extraction with MIBK (Example 11)
Format: physicochemical
Settings: listed as substance is the dissolved salt, at the concentration printed in the row (15-27 wt. %), feed 29 wt % lactic acid, 20° C.
With N.N.O=S(=O)(O)O [(NH4)2SO4] the “[lactic acid] product” value was 26 wt. %.
With [Ca+2].[Cl-].[Cl-] [CaCl2] the “[lactic acid] product” value was 18 wt. %.
In the case of [Cl-].[K+] [KCl], the “[lactic acid] product” value is reported as 21 wt. %.
With [Cl-].[Cl-].[Mg+2] [MgCl2, magnesium chloride] the “[lactic acid] product” value was 35 wt. %.
In the case of O=S(=O)([O-])[O-].[Na+].[Na+] [Na2SO4], the “[lactic acid] product” value is reported as 23 wt. %.
With O=P([O-])([O-])[O-].[Na+].[Na+].[Na+] [Na3PO4] the “[lactic acid] product” value was 6.4 wt. %.
With [Cl-].[Na+] [NaCl] the “[lactic acid] product” value was 23 wt. %.
In the case of O=[N+]([O-])[O-].[Na+] [NaNO3], the “[lactic acid] product” value is reported as 24 wt. %.

Test: Batch forward extraction of lactic acid into MIBK and back extraction into water (Examples 1-5)
Format: physicochemical
Settings: feed 29 wt % lactic acid, 15.3 wt % magnesium chloride; MIBK; forward 20° C., back 20° C.
In the case of CC(O)C(=O)O (stereo not shown) [lactic acid], the “concentration of lactic acid in aqueous phase after back extraction” value (shortened to “concentration of lactic acid”) is reported as 34.8 wt %.

Same assay, conditions: feed 29 wt % lactic acid, 15.3 wt % magnesium chloride; MIBK; forward 20° C., back 60° C.
With CC(O)C(=O)O (stereo not shown) [lactic acid] the “concentration of lactic acid” value was 36.2 wt %.

Same assay, conditions: feed 29 wt % lactic acid, 15.3 wt % magnesium chloride; MIBK; forward 60° C., back 20° C.
For CC(O)C(=O)O (stereo not shown) [lactic acid], the “concentration of lactic acid” value was 37.1 wt %.

Same assay, conditions: feed 29 wt % lactic acid, 15.3 wt % magnesium chloride; MIBK; forward 60° C., back 60° C.
With CC(O)C(=O)O (stereo not shown) [lactic acid] the “concentration of lactic acid” value was 36.0 wt %.

Same assay, conditions: feed 29 wt % lactic acid, no dissolved salt; MIBK; forward 20° C., back 20° C.; potentiometric titration
With CC(O)C(=O)O (stereo not shown) [lactic acid] the “concentration of lactic acid” value was 19.4 wt %.
